# Test results as given in the supplement of paper PMC8728848.
# Some of the results follow.
# Columns and labels:
# Assay in all cases: glycan array binding signal (z-score within array); higher = stronger binding
# Conditions in all cases: glycan notation: IUPAC condensed, linker removed
# [1] = molecular target: Neu5Ac(a2-6)Gal(b1-4)GlcNAc(b1-3)Gal(b1-3)GlcNAc
# In short: (§1)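 Arrays were curated from the Consortium for Functional Glycomics database, 3228 in total, and kept only where the protein sequence was available. Binding is expressed as a within-array Z-score. This score was averaged across arrays of the same protein sequence at different concentrations or buffers and across linkers, and negative values can be read as non-binding.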
# [2] = molecular target: Neu5Ac(a2-6)Gal(b1-4)GlcNAc(b1-3)Gal(b1-4)GlcNAc
# In short: as §1
# [3] = molecular target: Neu5Ac(a2-6)Gal(b1-4)GlcNAc(b1-3)Gal(b1-4)GlcNAc(b1-2)Man(a1-3)[Neu5Ac(a2-6)Gal(b1-4)GlcNAc(b1-3)Gal(b1-4)GlcNAc(b1-2)Man(a1-6)]GalNAc
# In short: as §1
# [4] = molecular target: Neu5Ac(a2-6)Gal(b1-4)GlcNAc(b1-3)Gal(b1-4)GlcNAc(b1-3)Gal(b1-4)GlcNAc
# In short: as §1
# [5] = molecular target: Neu5Ac(a2-6)Gal(b1-4)GlcNAc(b1-3)Gal(b1-4)GlcNAc(b1-3)Gal(b1-4)GlcNAc(b1-2)Man(a1-3)[Neu5Ac(a2-6)Gal(b1-4)GlcNAc(b1-3)Gal(b1-4)GlcNAc(b1-3)Gal(b1-4)GlcNAc(b1-2)Man(a1-6)]GalNAc
# In short: as §1
# [6] = molecular target: Neu5Ac(a2-6)Gal(b1-4)GlcNAc(b1-3)Gal(b1-4)GlcNAc(b1-3)GalNAc
# In short: as §1
# [7] = molecular target: Neu5Ac(a2-6)Gal(b1-4)GlcNAc(b1-3)Gal(b1-4)GlcNAc(b1-3)[Neu5Ac(a2-6)Gal(b1-4)GlcNAc(b1-3)Gal(b1-4)GlcNAc(b1-6)]GalNAc
# In short: as §1
# [8] = molecular target: Neu5Ac(a2-6)Gal(b1-4)GlcNAc(b1-3)Gal(b1-4)GlcNAc(b1-6)[Gal(b1-3)]GalNAc
# In short: as §1
# [9] = molecular target: Neu5Ac(a2-6)Gal(b1-4)GlcNAc(b1-3)Gal(b1-4)[Fuc(a1-3)]GlcNAc(b1-3)Gal(b1-4)[Fuc(a1-3)]GlcNAc
# In short: as §1
# [10] = molecular target: Neu5Ac(a2-6)Gal(b1-4)GlcNAc(b1-3)GalNAc
# In short: as §1
# [11] = molecular target: Neu5Ac(a2-6)Gal(b1-4)GlcNAc(b1-3)[Neu5Ac(a2-6)Gal(b1-4)GlcNAc(b1-6)]GalNAc
# In short: as §1
# [12] = molecular target: Neu5Ac(a2-6)Gal(b1-4)GlcNAc(b1-6)GalNAc
# In short: as §1
# [13] = molecular target: Neu5Ac(a2-6)Gal(b1-4)GlcNAc(b1-6)[Gal(b1-3)GlcNAc(b1-3)]Gal(b1-4)Glc
# In short: as §1
# [14] = molecular target: Neu5Ac(a2-6)Gal(b1-4)GlcNAc(b1-6)[Gal(b1-3)]GalNAc
# In short: as §1
# [15] = molecular target: Neu5Ac(a2-6)Gal(b1-4)GlcNAc6S
# In short: as §1
# [16] = molecular target: Neu5Ac(a2-6)GalNAc
# In short: as §1
# [17] = molecular target: Neu5Ac(a2-6)GalNAc(b1-4)GlcNAc
# In short: as §1
# [18] = molecular target: Neu5Ac(a2-6)GalNAc(b1-4)GlcNAc6S
# In short: as §1
# [19] = molecular target: Neu5Ac(a2-6)GlcNAc(b1-4)GlcNAc
# In short: as §1
# [20] = molecular target: Neu5Ac(a2-6)GlcNAc(b1-4)GlcNAc(b1-4)GlcNAc
# In short: as §1
# [21] = molecular target: Neu5Ac(a2-8)Neu5Ac
# In short: as §1
# [22] = molecular target: Neu5Ac(a2-8)Neu5Ac(a2-3)Gal(b1-3)GalNAc(b1-4)[Neu5Ac(a2-3)]Gal(b1-4)Glc
# In short: as §1
# [23] = molecular target: Neu5Ac(a2-8)Neu5Ac(a2-3)Gal(b1-3)GalNAc(b1-4)[Neu5Ac(a2-8)Neu5Ac(a2-3)]Gal(b1-4)Glc
# In short: as §1
# [24] = molecular target: Neu5Ac(a2-8)Neu5Ac(a2-3)Gal(b1-4)Glc
# In short: as §1
# [25] = molecular target: Neu5Ac(a2-8)Neu5Ac(a2-3)Gal(b1-4)GlcNAc
# In short: as §1
# [26] = molecular target: Neu5Ac(a2-8)Neu5Ac(a2-3)[Gal(b1-3)GalNAc(b1-4)]Gal(b1-4)Glc
# In short: as §1
# [27] = molecular target: Neu5Ac(a2-8)Neu5Ac(a2-3)[GalNAc(b1-4)]Gal(b1-4)Glc
# In short: as §1
# [28] = molecular target: Neu5Ac(a2-8)Neu5Ac(a2-8)Neu5Ac
# In short: as §1
# [29] = molecular target: Neu5Ac(a2-8)Neu5Ac(a2-8)Neu5Ac(a2-3)Gal(b1-4)Glc
# In short: as §1
# [30] = molecular target: Neu5Ac(a2-8)Neu5Ac(a2-8)Neu5Ac(a2-3)[Gal(b1-3)GalNAc(b1-4)]Gal(b1-4)Glc
# In short: as §1
# [31] = molecular target: Neu5Ac(a2-8)Neu5Ac(a2-8)Neu5Ac(a2-3)[GalNAc(b1-4)]Gal(b1-4)Glc
# In short: as §1
# [32] = molecular target: Neu5Ac(a2-8)Neu5Ac(a2-8)Neu5Ac(a2-8)Neu5Ac(a2-3)[GalNAc(b1-4)]Gal(b1-4)Glc
# In short: as §1
# [33] = molecular target: Neu5Ac(a2-8)Neu5Gc(a2-3)Gal(b1-4)GlcNAc
# In short: as §1
# [34] = molecular target: Neu5Ac(b2-6)Gal(b1-4)GlcNAc
# In short: as §1
# [35] = molecular target: Neu5Ac(b2-6)GalNAc
# In short: as §1
# [36] = molecular target: Neu5Ac9Ac(a2-3)Gal(b1-3)GlcNAc
# In short: as §1
# [37] = molecular target: Neu5Ac9Ac(a2-3)Gal(b1-4)GlcNAc
# In short: as §1
# [38] = molecular target: Neu5Ac9Ac(a2-6)Gal(b1-4)GlcNAc
# In short: as §1
# [39] = molecular target: Neu5Gc(a2-3)Gal(b1-3)GlcNAc
# In short: as §1
# [40] = molecular target: Neu5Gc(a2-3)Gal(b1-3)[Fuc(a1-4)]GlcNAc
# In short: as §1
# [41] = molecular target: Neu5Gc(a2-3)Gal(b1-4)Glc
# In short: as §1
# [42] = molecular target: Neu5Gc(a2-3)Gal(b1-4)GlcNAc
# In short: as §1
# [43] = molecular target: Neu5Gc(a2-3)Gal(b1-4)GlcNAc(b1-3)Gal(b1-4)GlcNAc(b1-2)Man(a1-3)[Neu5Gc(a2-3)Gal(b1-4)GlcNAc(b1-3)Gal(b1-4)GlcNAc(b1-2)Man(a1-6)]Man(b1-4)GlcNAc(b1-4)GlcNAc
# In short: as §1
# [44] = molecular target: Neu5Gc(a2-3)Gal(b1-4)[Fuc(a1-3)]GlcNAc
# In short: as §1
# [45] = molecular target: Neu5Gc(a2-6)Gal(b1-4)GlcNAc
# In short: as §1
# [46] = molecular target: Neu5Gc(a2-6)GalNAc
# In short: as §1
# [47] = molecular target: Neu5Gc(a2-8)Neu5Ac(a2-3)Gal(b1-4)GlcNAc
# In short: as §1
# [48] = molecular target: Neu5Gc(a2-8)Neu5Gc(a2-3)Gal(b1-4)GlcNAc
# In short: as §1
# [49] = molecular target: Neu5Gc(a2-8)Neu5Gc(a2-3)Gal(b1-4)GlcNAc(b1-3)Gal(b1-4)GlcNAc
# In short: as §1
# [50] = molecular target: Neu5Gc(a2-8)Neu5Gc(a2-6)Gal(b1-4)GlcNAc
# In short: as §1
# [51] = molecular target: Neu5Gc(b2-6)Gal(b1-4)GlcNAc
# In short: as §1
binder,measurement,setting,value
KILRGVCKKIMRTFLRRISKDILTGKK [NK2 (Sus scrofa)],glycan array binding signal (z-score),[1],-0.155
same,glycan array binding signal (z-score),[2],-0.01
same,glycan array binding signal (z-score),[3],0.632
same,glycan array binding signal (z-score),[4],0.297
same,glycan array binding signal (z-score),[5],1.64
same,glycan array binding signal (z-score),[6],0.458
same,glycan array binding signal (z-score),[7],0.794
same,glycan array binding signal (z-score),[8],0.793
same,glycan array binding signal (z-score),[9],-0.083
same,glycan array binding signal (z-score),[10],0.812
same,glycan array binding signal (z-score),[11],1.76
same,glycan array binding signal (z-score),[12],1.37
same,glycan array binding signal (z-score),[13],-0.41
same,glycan array binding signal (z-score),[14],-1.1
same,glycan array binding signal (z-score),[15],1.69
same,glycan array binding signal (z-score),[16],-0.814
same,glycan array binding signal (z-score),[17],-0.829
same,glycan array binding signal (z-score),[18],0.339
same,glycan array binding signal (z-score),[19],-0.816
same,glycan array binding signal (z-score),[20],-0.425
same,glycan array binding signal (z-score),[21],0.69
same,glycan array binding signal (z-score),[22],0.902
same,glycan array binding signal (z-score),[23],0.039
same,glycan array binding signal (z-score),[24],-0.889
same,glycan array binding signal (z-score),[25],-0.699
same,glycan array binding signal (z-score),[26],-0.924
same,glycan array binding signal (z-score),[27],-0.196
same,glycan array binding signal (z-score),[28],0.091
same,glycan array binding signal (z-score),[29],0.702
same,glycan array binding signal (z-score),[30],0.446
same,glycan array binding signal (z-score),[31],-0.07
same,glycan array binding signal (z-score),[32],0.244
same,glycan array binding signal (z-score),[33],-1.23
same,glycan array binding signal (z-score),[34],-1.01
same,glycan array binding signal (z-score),[35],-0.062
same,glycan array binding signal (z-score),[36],-0.385
same,glycan array binding signal (z-score),[37],0.261
same,glycan array binding signal (z-score),[38],0.15
same,glycan array binding signal (z-score),[39],-0.108
same,glycan array binding signal (z-score),[40],-0.471
same,glycan array binding signal (z-score),[41],-0.495
same,glycan array binding signal (z-score),[42],0.176
same,glycan array binding signal (z-score),[43],-0.865
same,glycan array binding signal (z-score),[44],-0.776
same,glycan array binding signal (z-score),[45],-0.373
same,glycan array binding signal (z-score),[46],0.251
same,glycan array binding signal (z-score),[47],-1.68
same,glycan array binding signal (z-score),[48],-1.76
same,glycan array binding signal (z-score),[49],-0.369
same,glycan array binding signal (z-score),[50],-1.65
same,glycan array binding signal (z-score),[51],0.622

# In another format: entries from further up.
binder | measurement | setting | value
KILRGVCKKIMRTFLRRISKDILTGKK [NK2 (Sus scrofa)] | glycan array binding signal (z-score) | [25] | -0.699
same | glycan array binding signal (z-score) | [35] | -0.062
